According to paper PMC3271067:
These are yes or no findings as the source states them, for the method shown. In cells and extracts the contact can be indirect. Some binding calls cover weakened binding; strength is not graded here. Where a sequence is shown, tags or fusion partners need not be part of it.

T1: Kar3-3HA (S. cerevisiae) (UniProt P17119)
T1 sequence: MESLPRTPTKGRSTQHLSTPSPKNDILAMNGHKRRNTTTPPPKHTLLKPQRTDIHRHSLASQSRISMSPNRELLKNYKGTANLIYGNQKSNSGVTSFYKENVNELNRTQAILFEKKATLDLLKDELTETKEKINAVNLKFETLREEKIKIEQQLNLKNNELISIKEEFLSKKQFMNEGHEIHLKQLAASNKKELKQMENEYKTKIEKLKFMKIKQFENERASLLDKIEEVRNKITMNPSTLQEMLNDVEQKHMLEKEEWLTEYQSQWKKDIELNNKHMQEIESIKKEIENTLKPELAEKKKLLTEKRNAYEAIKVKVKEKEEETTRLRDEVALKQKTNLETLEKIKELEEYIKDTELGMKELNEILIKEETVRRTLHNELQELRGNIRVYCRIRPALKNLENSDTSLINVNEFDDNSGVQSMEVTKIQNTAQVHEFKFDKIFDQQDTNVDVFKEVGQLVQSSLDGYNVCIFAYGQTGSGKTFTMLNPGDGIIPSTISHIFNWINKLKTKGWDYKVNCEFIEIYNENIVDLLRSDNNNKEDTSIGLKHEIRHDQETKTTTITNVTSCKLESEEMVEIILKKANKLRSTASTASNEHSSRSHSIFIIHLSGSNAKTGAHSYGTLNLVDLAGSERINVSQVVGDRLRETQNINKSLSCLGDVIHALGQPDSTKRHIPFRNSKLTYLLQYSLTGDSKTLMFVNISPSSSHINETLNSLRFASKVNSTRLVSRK

B1: Cik1-13myc (protein, UniProt Q01649 1-594)
chain: MNNSKIPKLSFHSDPNNVTRDFPKTKRQKVQKREMDMILTPNNNKLNILHSSGSGIRRCYTDDTSATYTKKLTFGGDPKIIERVKNNERKVRKDIDSLLNAISEIEKESVRIHARELPAITLELDAKVKACRELQNEIDGLSTEMDLKDNQCDLQRKNVELSSKNIVSMHAVKVQEFENDLEEELSNAKREWTYKLMEVENLKPDERLTDEMRQLKTEFEEVNRKLFILQNENENECKNYKKELDKKFEIFKKVKNDARIELDGEQERLSKVLKDLQDTHGELKENIKTCRDEFNDFEKRIGEAEVNFHSMELAVVPLKKKLASTSQALTQVQEEKKQVEGEANNWKKKYVNELEKVQQELYTRQNLATSIEEIKGYTRCFAYANERQMPDEFHINYVDRCICENSGEKRVQVFDRVVLEEIHKDHKRLYNECIPFLEKYISKLINCSIIVVSQQPTAPMKKTLLKQLIEQYGENYKMTLNILHLDGSIKHSDVGLDNPTEIRDLSQDEECMNILTLDTKLGKDEESHSMNIYIGSMSTVQLNRELDDAPSVLSHILTKTKQCFVFKINAGENIEKALALAGKLKRTITLPQLD
B2: Vik1-13myc (protein, UniProt Q12045 1-647)
chain: MASQQNKHAFLSKNRIFHNPDNVSSSKSRNLMDITNTTNTMNGSRPSSMKSSLALPPVKDSFPSVSRSASLNINMSKIKDLKDRQDKIRFQRHTLRTQLIECEREIKTIKFRDLNKSRFELYKKKSKQAKYLKQVRDLTQNLNSKDGERADLIKKNKSALATLQAELDQNLILKRQESQELYNNKLIFWENELQIMENVEPDHEITEEISQLKKTLQELNINWANLQKQNLERQVNHESQLRKDFIAFKEAKLKSMENLTNKHRELLDQIATLQSESEKLHKEIMDIDRQAEYSEQNISEINENIKQLELANNPLISKSLQNSQDLEHLQNQMENLKEMASKQEKFYNDTYNTVEKELLRSRRLENSIIEQKGTMRCYAYVMEQNLPENLLFDYENGVITQGLSEHVYKFNRVIPHLKVSEDKFFTQEYSVYHDMCLNQKKNFNLISLSTTPHGSLRESLIKFLAEKDTIYQKQYVITLQFVFLSDDEFSQDMLLDYSHNDKDSIKLKFEKHSISLDSKLVIIENGLEDLPLNFSCDEHPNLPHSGMGIIKVQFFPRDSKSDGNNDPVPVDFYFIELNNLKSIEQFDKSIFKKESCETPIALVLKKLISDTKSFFLLNLNDSKNVNKLLTISEEVQTQLCKRKKKLT

Columns and labels:
Kar3-3HA (S. cerevisiae) [1] = biological target: T1, Kar3-3HA (S. cerevisiae); assay: co-IP; yeast cell extracts in RIPA buffer (25 mM Tris pH 7.5, 10 mM EDTA, 150 mM NaCl, 0.05% Tween-20), IP with anti-HA antibody overnight at 4°C, protein-A agarose, blots with anti-HA and anti-myc; mid-log cells or cells with the empty vector in galactose for 3 hrs
Kar3-3HA (S. cerevisiae) [2] = biological target: T1, Kar3-3HA (S. cerevisiae); assay: condition: only with CIK1-CC overexpressed (galactose for 3 hrs); co-IP; as a1 (IP with anti-HA antibody), but cells carry the PGALCIK1-CC plasmid and overexpress CIK1-CC (galactose for 3 hrs)

Binder	binding (Kar3-3HA (S. cerevisiae) [1])	binding (Kar3-3HA (S. cerevisiae) [2])
B1	binds	no binding
B2	binds	–
